Measurements from US8148334B2, “Peptides with capacity for binding with interleukine 10 (IL-10)” (Proyecto de Biomedicina Cima, S.L., priority 2007, dated 2012).
Not every detail of the peptide structures is certain; ends, links or a residue may be inferred. Where a SMILES comes first, the peptide text is derived from it. Where no end group is shown, it is not given here.

Protein sequences, listed by entry. Tags and fused reporters are not part of them. Residues count along the entry.
UniProt P22301, 19-178: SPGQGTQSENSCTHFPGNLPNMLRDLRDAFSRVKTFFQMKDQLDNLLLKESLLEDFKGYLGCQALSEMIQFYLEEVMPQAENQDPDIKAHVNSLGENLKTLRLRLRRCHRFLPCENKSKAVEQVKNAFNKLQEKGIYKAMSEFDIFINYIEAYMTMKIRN

Target: T1, human IL-10 (Homo sapiens, UniProt P22301)
T1 construct: purchased R & D Systems 217-IL/CF
Test: Surface plasmon resonance analysis on immobilized IL-10
Assay type: binding
Details: peptide 10 μM, compared with control peptide P301

| Compound | capacity to bind to IL-10 (SPR signal) |
| --- | --- |
| CC(C)[C@H](NC(=O)[C@H](C)NC(=O)[C@@H](NC(=O)[C@@H]1CCCN1C(=O)[C@H](Cc1c[nH]cn1)NC(=O)[C@H](CCCNC(=N)N)NC(=O)[C@H](CCCNC(=N)N)NC(=O)[C@H](Cc1ccccc1)NC(=O)[C@H](Cc1c[nH]cn1)NC(=O)[C@H](Cc1ccccc1)NC(=O)[C@H](CS)NC(=O)[C@H](CCCNC(=N)N)NC(=O)[C@H](Cc1c[nH]cn1)NC(=O)[C@@H](N)CS)C(C)C)C(=O)N[C@@H](Cc1ccccc1)C(=O)O [P9] (H-CHRCFHFRRHPVAVF-OH; N-terminus and C-terminus assumed) | capacity to bind to IL-10 being confirmed |
| TRHRHVPRFLPLRHV [P13] | capacity to bind to IL-10 being confirmed |
